Laboratory results reported in PubChem BioAssay AID248 (DTP/NCI, 2004).
The list is a part of this screen's results and no random one: it is rich in T/C values a quarter to a half above the control, in often repeated tests (any T/C) and in doses without a T/C. Other doses and runs of a compound stand elsewhere. T/C gives the treated animals as a percentage of the vehicle group. Some entries give survivors of the animals treated and no T/C: the source files T/C as zero there, which appears to mark a toxic dose or a test without result, not a measured value. Some survivor counts are full or nearly so, which does not show that the dose was tolerated: survival well below the control is almost never listed, so the zero probably covers shortened survival too. Survivors were counted at the toxicity check, usually on the fifth day, unless a day is given; later deaths do not show. Schedule codes are those of the source, read here as Q, the interval in days (D) or hours (H), X, the number of doses. For survival time, this PubChem deposit counts one and a half times the control or more as active, and values a quarter to a half above the control carry no call in these data; other NCI protocols may use other cut-offs. Some T/C values are followed by the survivors on the day toxicity was checked, most often the fifth; where none is given, no animal had died by that day. Some entries hold several experiments; their values stand side by side, smallest first.

Tested on: L1210 leukemia ip in BDF1 mice, survival T/C
Assay: NCI In Vivo Anticancer Drug Screen. Data for tumor model L1210 Leukemia (intraperitoneal) in B6D2F1 (BDF1) mice
Conditions: T/C endpoint: mean survival time, higher T/C = longer survival
[1] = dose: 400.0 mg/kg/injection, schedule: Q01DX009 (ip), vehicle: saline
[2] = dose: 100.0 mg/kg/injection, schedule: Q04DX002 (ip), vehicle: other
[3] = dose: 200.0 mg/kg/injection, schedule: Q04DX002 (ip), vehicle: other
[4] = dose: 400.0 mg/kg/injection, schedule: Q04DX002 (ip), vehicle: other
[5] = dose: 100.0 mg/kg/injection, schedule: Q01DX009 (ip), vehicle: Klucel (hydroxypropylcellulose) (HPC)
[6] = dose: 200.0 mg/kg/injection, schedule: Q04DX003 (ip), vehicle: Klucel (hydroxypropylcellulose) (HPC)
[7] = dose: 400.0 mg/kg/injection, schedule: Q04DX003 (ip), vehicle: Klucel (hydroxypropylcellulose) (HPC)
[8] = dose: 200.0 mg/kg/injection, schedule: Q01DX001 (ip), vehicle: saline

Structure (SMILES): NC(CCC(=O)NC(CSC(c1ccccc1)(c1ccccc1)c1ccccc1)C(=O)NCC(=O)O)C(=O)O (stereo not drawn)
- T/C (dose: 200.0 mg/kg/injection, schedule: Q01DX009 (ip), vehicle: saline): 137 % of control
- survivor count (dose: 300.0 mg/kg/injection, schedule: Q01DX009 (ip), vehicle: saline): 5 of 8
- survivor count [1]: 4 of 6

Structure (SMILES): CCNC(=S)NNC(=S)NNc1ccccc1
- survivor count [2]: 0 of 3
- survivor count [3]: 0 of 3
- survivor count [4]: 0 of 3

Structure (SMILES): Cc1c(CCl)c(C)c(CCl)c(C)c1CCl
- survivor count [5]: 4 of 6
- survivor count (dose: 100.0 mg/kg/injection, schedule: Q04DX003 (ip), vehicle: Klucel (hydroxypropylcellulose) (HPC)): 4 of 6
- survivor count [6]: 5 of 6
- survivor count [7]: 4 of 6

Structure (SMILES): COc1ccc(C(C#N)CC(=O)c2ccc(OC)c(OCc3ccccc3)c2)cc1OC (stereo not drawn)
- survivor count [1]: 2 of 6

Structure (SMILES): N=C(N[N+](=O)[O-])N(CCC(=O)O)N=O
- T/C (dose: 65.0 mg/kg/injection, schedule: Q01DX015 (ip), vehicle: saline): 125 % of control
- T/C (dose: 100.0 mg/kg/injection, schedule: Q01DX001 (ip), vehicle: saline): 130 % of control
- T/C (dose: 108.0 mg/kg/injection, schedule: Q01DX015 (ip), vehicle: saline): 127 % of control
- T/C (dose: 118.7 mg/kg/injection, schedule: Q01DX015 (ip), vehicle: saline): 125 and 126 % of control [5 of 6 alive]
- T/C (dose: 180.0 mg/kg/injection, schedule: Q01DX015 (ip), vehicle: saline): 130 % of control
- T/C [8]: 127 % of control
- survivor count [8]: 6 of 6
- T/C (dose: 267.0 mg/kg/injection, schedule: Q01DX015 (ip), vehicle: saline): 125 % of control
- T/C (dose: 300.0 mg/kg/injection, schedule: Q01DX015 (ip), vehicle: saline): 134 % of control [5 of 6 alive]
- T/C (dose: 400.0 mg/kg/injection, schedule: Q01DX001 (ip), vehicle: saline, evaluated on day 30): 87 and 127 % of control [3 of 4 alive]
- T/C (dose: 400.0 mg/kg/injection, schedule: Q01DX001 (ip), vehicle: saline, run until all animals had died): 107 [3 of 4 alive], 127, 130 % of control
- T/C (dose: 402.0 mg/kg/injection, schedule: Q01DX015 (ip), vehicle: saline): 125 % of control
- T/C (dose: 600.0 mg/kg/injection, schedule: Q01DX001 (ip), vehicle: saline, evaluated on day 30): 103 and 140 % of control [3 of 4 alive]
- T/C (dose: 600.0 mg/kg/injection, schedule: Q01DX001 (ip), vehicle: saline, run until all animals had died): 117 [3 of 4 alive] and 158 % of control [4 of 6 alive]
- T/C (dose: 800.0 mg/kg/injection, schedule: Q01DX001 (ip), vehicle: saline): 133 % of control

Structure (SMILES): O=c1c(Br)cc(Cl)nc2c(Br)cc(Br)cc12
- survivor count [5]: 2 of 6
- survivor count (dose: 200.0 mg/kg/injection, schedule: Q01DX009 (ip), vehicle: Klucel (hydroxypropylcellulose) (HPC)): 2 of 6
- survivor count [6]: 1 of 6
- survivor count [7]: 0 of 6

Structure (SMILES): COC1CC2C(C[CH]1[Hg][Cl])C2(Cl)Cl (stereo not drawn)
- survivor count (dose: 25.0 mg/kg/injection, schedule: Q04DX003 (ip), vehicle: saline with Tween-80): 5 of 6

Structure (SMILES): CCN(CC)CCN(CC)CCN(CC)CC
- survivor count [1]: 0 of 6

Structure (SMILES): CCCCC[C@H](CN(C)C)[C@H](O)/C=C/c1ccc(Cl)cc1
- survivor count [2]: 3 of 3
- survivor count [3]: 3 of 3
- survivor count [4]: 3 of 3

Structure (SMILES): CCOc1cc(/C=N\NC(=O)CCCC(=O)N/N=C/c2ccc(O)c(OCC)c2)ccc1O
- survivor count (dose: 50.0 mg/kg/injection, schedule: Q01DX001 (ip), vehicle: carboxymethylcellulose (CMC)): 4 of 4
- survivor count (dose: 100.0 mg/kg/injection, schedule: Q01DX001 (ip), vehicle: carboxymethylcellulose (CMC)): 4 of 4
- survivor count (dose: 400.0 mg/kg/injection, schedule: Q01DX001 (ip), vehicle: carboxymethylcellulose (CMC)): 4 of 4
